The match of structure and compound is tentative.
Target: H. sapiens SLC2A9 variant 2 (GLUT9B) (Homo sapiens, UniProt Q9NRM0)
Assay: GLUT9 functional assay: uric acid uptake in HEK293T cells, allantoin formation by MS/MS as proxy of GLUT9B inhibition
Settings: read-out: 60 min IC50; 60 minute assay; HEK293T cells stably expressing GLUT9B and transiently A. oryzae uricase; uric acid 0.3 mM, 37° C.
Method: Uric acid stocks (9 mM, Millipore-Sigma, U0881) were generated in 125 mM choline chloride (Millipore-Sigma, C7017) and the concentration was determined at 293 nm using a molar extinction coefficient of 9600 M- ^1 cm- ^1) after collecting the absorbance spectra from 220-350 nm. Allantoin stocks (12 mM Toronto Research Chemicals, A540500) were generated in LCMS grade water (Thermo Scientific, 51140). The concentration of allantoin was determined by qNMR (Michigan State University). HEK293T cells were purchased from ATCC (HEK 293T/17 SF). Hanks buffered saline salts (HBSS) was purchased from Millipore-Sigma (H6648-1L). […]
Uric acid uptake was measured in HEK293T cells stably expressing H. sapiens SLC2A9 variant 2 (GLUT9B) and transiently expressing A. oryzae uricase. […] Allantoin was detected in positive ion mode. Desired analyte concentrations were quantitated by integrating the area under the curve followed by a log-logistic regression model and data compared to a standard curve prepared in a matching HEK293T biological matrix.
Mass spectrometry measurement of allantoin was completed using an Agilent RapidFire 300 coupled to a Sciex API 4000 mass spectrometer. […] Allantoin was detected in positive ion mode with the following compound ID settings: Q1 159, Q3 115.8, DP 57, CE 12.5 Dwell 100 ms. […]

By UniProt entry, the sequences of proteins in these tests, tags left out. Residues count along the entry.
UniProt Q9NRM0, 1-511 isoform 2: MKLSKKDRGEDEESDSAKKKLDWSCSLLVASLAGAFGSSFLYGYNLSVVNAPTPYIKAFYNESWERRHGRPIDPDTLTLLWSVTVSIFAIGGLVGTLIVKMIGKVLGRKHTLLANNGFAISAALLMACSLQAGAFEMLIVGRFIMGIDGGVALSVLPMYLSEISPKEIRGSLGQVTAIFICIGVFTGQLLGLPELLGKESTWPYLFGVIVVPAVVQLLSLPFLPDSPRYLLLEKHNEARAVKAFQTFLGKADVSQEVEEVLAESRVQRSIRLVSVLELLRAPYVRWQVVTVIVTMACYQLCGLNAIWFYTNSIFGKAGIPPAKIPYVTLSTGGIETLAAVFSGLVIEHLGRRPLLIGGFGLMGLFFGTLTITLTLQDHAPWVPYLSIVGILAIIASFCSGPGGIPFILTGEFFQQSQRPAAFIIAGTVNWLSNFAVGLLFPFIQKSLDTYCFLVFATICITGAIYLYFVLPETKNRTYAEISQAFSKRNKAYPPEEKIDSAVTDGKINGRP

`COCCCc1cnc(-c2ccc3c(c2)COC3=O)c(N2CCC(C(=O)O)CC2)c1` [Compound 232, 1-(5-(3-methoxypropyl)-2-(1-oxo-1,3-dihydroisobenzofuran-5-yl)pyridin-3-yl)piperidine-4-carboxylic acid] gave an IC50 greater than 2000 nM.

Reference: patent US20250179032A1, “HETEROCYCLIC INHIBITORS OF GLUT9 FOR TREATMENT OF DISEASE” (HORIZON THERAPEUTICS IRELAND DAC, priority 2022, published 2025)
